Source: doi:10.1371/journal.pone.0140310, primary screening data, rounded.

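The test systems are human melanoma cell lines, treated with two drugs together for 72 h and then stained and imaged. Each value is the cleaved-PARP-positive fraction of nuclei relative to DMSO-treated wells, in %, so that 100 equals the control and higher values mean more apoptosis. Concentrations were fixed for each drug; these are the higher of two levels. No replicate spread is given; individual values may be noisy. The marker varies much from line to line, for technical or biological reasons.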 This is part of the screen, not chosen by result. An entry leaves out what has no value listed here.

All values are for the listed drug together with sunitinib (2000 nM): CCN(CC)CCNC(=O)c1c(C)[nH]c(/C=C2\C(=O)Nc3ccc(F)cc32)c1C

Drug key:
vorinostat, 400 nM: O=C(CCCCCCC(=O)Nc1ccccc1)NO
erlotinib, 4000 nM: C#Cc1cccc(Nc2ncnc3cc(OCCOC)c(OCCOC)cc23)c1
dorsomorphin, 2000 nM: c1cc(-c2cnn3cc(-c4ccc(OCCN5CCCCC5)cc4)cnc23)ccn1
CP-690550, 5000 nM: C[C@@H]1CCN(C(=O)CC#N)C[C@@H]1N(C)c1ncnc2[nH]ccc12
NVP-TAE684, 400 nM: COc1cc(N2CCC(N3CCN(C)CC3)CC2)ccc1Nc1ncc(Cl)c(Nc2ccccc2S(=O)(=O)C(C)C)n1
FK866, 50 nM: O=C(/C=C/c1cccnc1)NCCCCC1CCN(C(=O)c2ccccc2)CC1
lenalidomide, 5000 nM: Nc1cccc2c1CN(C1CCC(=O)NC1=O)C2=O (configuration not stated)

{"second drug": "dorsomorphin", "LOX IMVI": 107, "WM3619": 115, "UACC-62": 121, "RPMI-7951": 146, "501mel": 183, "SK-MEL-30": 149, "A101D": 93.0, "MZ2-MEL": 132, "A2058": 211, "IST-MEL1": 322, "SK-MEL-28": 46.5, "MeWo": 173, "COLO 829": 73.2, "RVH-421": 114, "C32": 110, "COLO 792": 158, "SK-MEL-2": 155, "WM451Lu": 693, "G-361": 350, "COLO 800": 42.2, "WM1716": 635, "WM3526": 435, "WM115": 101, "LB2518-MEL": 346, "A375": 60.7, "MEL-HO": 195, "SK-MEL-5": 109, "UACC-257": 39.0, "IPC-298": 93.9}
{"second drug": "lenalidomide", "LOX IMVI": 130, "WM3619": 156, "UACC-62": 262, "RPMI-7951": 102, "SK-MEL-30": 189, "A101D": 109, "WM1745": 185, "MZ2-MEL": 150, "A2058": 186, "IST-MEL1": 33.1, "SK-MEL-28": 36.6, "MeWo": 208, "COLO 829": 172, "RVH-421": 453, "C32": 27.3, "COLO 792": 198, "SK-MEL-2": 116, "WM451Lu": 65.0, "G-361": 69.8, "COLO 800": 170, "WM1716": 57.7, "WM3526": 372, "WM115": 270, "LB2518-MEL": 208, "A375": 157, "MEL-HO": 83.4, "SK-MEL-5": 180, "UACC-257": 33.0, "IPC-298": 137}
{"second drug": "CP-690550", "LOX IMVI": 113, "WM3619": 113, "UACC-62": 106, "RPMI-7951": 162, "SK-MEL-30": 212, "A101D": 152, "WM1745": 148, "MZ2-MEL": 181, "A2058": 504, "IST-MEL1": 143, "SK-MEL-28": 24.6, "MeWo": 174, "COLO 829": 85.8, "RVH-421": 147, "C32": 97.3, "COLO 792": 166, "SK-MEL-2": 129, "WM451Lu": 164, "G-361": 117, "COLO 800": 111, "WM1716": 94.0, "WM3526": 163, "WM115": 139, "LB2518-MEL": 337, "MEL-HO": 70.5, "SK-MEL-5": 92.7, "UACC-257": 68.5, "IPC-298": 115}
{"second drug": "erlotinib", "LOX IMVI": 51.0, "WM3619": 120, "UACC-62": 177, "RPMI-7951": 72.7, "SK-MEL-30": 272, "A101D": 154, "WM1745": 246, "MZ2-MEL": 64.3, "A2058": 224, "IST-MEL1": 43.8, "SK-MEL-28": 341, "MeWo": 196, "COLO 829": 113, "RVH-421": 107, "C32": 43.0, "COLO 792": 944, "SK-MEL-2": 241, "WM451Lu": 152, "G-361": 123, "COLO 800": 201, "WM1716": 211, "WM3526": 467, "WM115": 395, "LB2518-MEL": 128, "A375": 153, "MEL-HO": 59.2, "SK-MEL-5": 1050, "UACC-257": 46.6, "IPC-298": 497}
{"second drug": "vorinostat", "LOX IMVI": 477, "WM3619": 149, "UACC-62": 129, "RPMI-7951": 304, "SK-MEL-30": 268, "A101D": 148, "WM1745": 233, "MZ2-MEL": 184, "A2058": 198, "IST-MEL1": 110, "SK-MEL-28": 146, "MeWo": 109, "COLO 829": 98.8, "RVH-421": 48.4, "C32": 65.2, "COLO 792": 268, "SK-MEL-2": 104, "WM451Lu": 89.1, "G-361": 29.3, "COLO 800": 388, "WM1716": 63.7, "WM3526": 334, "WM115": 88.2, "LB2518-MEL": 192, "MEL-HO": 80.1, "SK-MEL-5": 210, "UACC-257": 117, "IPC-298": 93.9}
{"second drug": "NVP-TAE684", "LOX IMVI": 114, "WM3619": 95.3, "UACC-62": 293, "RPMI-7951": 307, "501mel": 657, "SK-MEL-30": 96.0, "A101D": 128, "MZ2-MEL": 125, "A2058": 316, "IST-MEL1": 57.8, "SK-MEL-28": 135, "MeWo": 184, "COLO 829": 113, "RVH-421": 38.6, "C32": 266, "COLO 792": 135, "SK-MEL-2": 148, "WM451Lu": 237, "G-361": 80.8, "COLO 800": 182, "WM1716": 78.7, "WM3526": 287, "WM115": 251, "LB2518-MEL": 352, "A375": 121, "MEL-HO": 78.6, "SK-MEL-5": 202, "UACC-257": 30.4, "IPC-298": 96.8}
{"second drug": "FK866", "LOX IMVI": 34.7, "WM3619": 141, "UACC-62": 105, "RPMI-7951": 87.1, "SK-MEL-30": 334, "A101D": 236, "WM1745": 133, "MZ2-MEL": 1420, "A2058": 214, "IST-MEL1": 63.0, "SK-MEL-28": 163, "MeWo": 146, "COLO 829": 541, "RVH-421": 718, "C32": 172, "COLO 792": 1220, "SK-MEL-2": 1600, "WM451Lu": 116, "G-361": 9180, "COLO 800": 288, "WM1716": 18.2, "WM3526": 551, "WM115": 256, "LB2518-MEL": 2160, "A375": 133, "MEL-HO": 329, "SK-MEL-5": 222, "UACC-257": 125, "IPC-298": 3460}